No constants are given. Whether binding was seen depends on the method and setting. Some entries that bind do so weakly or less than the wild type.
Legend:
[1] = target: cynomolgus monkey BTLA on cells (stably transfected 293c18 clone 1G5; cynomolgus peripheral blood T and B cells) (cynomolgus monkey); assay: flow cytometry on cynomolgus monkey T and B cells
[2] = target: cynomolgus monkey BTLA on cells (stably transfected 293c18 clone 1G5; cynomolgus peripheral blood T and B cells) (cynomolgus monkey); assay: flow cytometry, AF647-labeled 6G3 IgG4 on cynomolgus monkey whole blood, CD3+ T cells and CD20+ B cells
[3] = target: cynomolgus monkey BTLA on cells (stably transfected 293c18 clone 1G5; cynomolgus peripheral blood T and B cells) (cynomolgus monkey); assay: receptor occupancy in dosed cynomolgus monkeys (10, 50, 100 mg/kg SC, 100 mg/kg IV weekly), flow cytometry of free BTLA with labelled 6G3 IgG4-DyL488 on blood T and B cells [left panels (Receptor Occupancy]
[4] = target: cynomolgus monkey BTLA on cells (stably transfected 293c18 clone 1G5; cynomolgus peripheral blood T and B cells) (cynomolgus monkey); assay: flow cytometry on cynomolgus monkey whole blood
[5] = target: cynomolgus monkey BTLA on cells (stably transfected 293c18 clone 1G5; cynomolgus peripheral blood T and B cells) (cynomolgus monkey); assay: flow cytometry on 293c18 cells expressing cynomolgus monkey BTLA
[6] = target: cynomolgus monkey BTLA on cells (stably transfected 293c18 clone 1G5; cynomolgus peripheral blood T and B cells) (cynomolgus monkey); assay: flow cytometry (mean fluorescence intensity) on CD20+ B cells of lysed cynomolgus monkey whole blood
[7] = target: cynomolgus monkey BTLA on cells (stably transfected 293c18 clone 1G5; cynomolgus peripheral blood T and B cells) (cynomolgus monkey); assay: flow cytometry (mean fluorescence intensity) on CD3+ T cells of lysed cynomolgus monkey whole blood

Measured: binding

B1: Anti-BTLA clone 10D8 (APE10134) (antibody, V domains shown)
VH: QVQLVQSGAEVKKPGASVKVSCKASGYTLTDYTIHWVRQAPGQRLEWMGWIYPGSGNTKYNDKFKVRVTITRDTSASTAYMELSSLRSEDTAVYYCARRNYYAMEYWGQGTTVTVSS
VL: DIVMTQSPDSLAVSLGERATINCKASQNVFTNVAWYQQKPGQSPKPLIYSASYRYSGVPDRFSGSGSGTDFTLTISSLQAEDVAVYYCQQYSTYPYTFGQGTKLEIKR
binds: [1]

B2: 6G3 IgG4 anti-BTLA antibody (APE10840 / APE12839 / APE13308) (antibody, V domains shown)
VH: QVQLVQSGAEVKKPGSSVKVSCKASGYVFSTSWMNWVRQAPGQGLEWMGRIYPGDADTNYVGKFKGRVTITADKSTTTAYMELSSLRSEDTAVYFCAKSGTFNFGNYRWYFDVWGKGTTVTVSS
VL: AIQLTQSPSSLSASVGDRVTITCRVSENIYSHLAWYQQKPGKAPKLLIYAATNLALGVPSRFSGSGSGTDYTLTISSLQPEDFATYYCQLFWGPPLTFGGGTKVEIKR
notes: Humanized antibody from a mouse hybridoma, tested as human IgG4 (detected with anti-human kappa); Some assays used labelled lots (DyLight 650, AF647, biotin, DyL488); also called 6G3 antibody; APE10840.03
not listed: [1]
binds: all other assays above

— patent US20230391872A1 (ANAPTYSBIO, published 2023)
